This note sets out measurements from US20220363763A1.

Amino acid sequences for entries named in this document (tags omitted). A change or cut given only in a name is not applied to a line headed by its entry. Chains listed by the source or under a name are the forms on record and can include a tag or linker.
rhesus PD-L1-Fc protein (F6PJN1, form named): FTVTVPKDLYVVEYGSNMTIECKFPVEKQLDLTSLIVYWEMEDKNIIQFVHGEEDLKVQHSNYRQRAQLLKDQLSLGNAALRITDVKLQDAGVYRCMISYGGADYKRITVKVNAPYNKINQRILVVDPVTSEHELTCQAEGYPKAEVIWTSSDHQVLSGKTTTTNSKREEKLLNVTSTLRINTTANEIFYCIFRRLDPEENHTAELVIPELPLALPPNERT

No constants are given. Whether binding was seen depends on the method and setting. Some results given as binding are weak or reduced against the parent protein; the word gives no strength.

The target of experiment [1] is T1, biotin-labeled LAG3-ECD (Homo sapiens (Human)) (UniProt P18627).
T1 sequence (chain, by the resolver, biotin label, site not stated): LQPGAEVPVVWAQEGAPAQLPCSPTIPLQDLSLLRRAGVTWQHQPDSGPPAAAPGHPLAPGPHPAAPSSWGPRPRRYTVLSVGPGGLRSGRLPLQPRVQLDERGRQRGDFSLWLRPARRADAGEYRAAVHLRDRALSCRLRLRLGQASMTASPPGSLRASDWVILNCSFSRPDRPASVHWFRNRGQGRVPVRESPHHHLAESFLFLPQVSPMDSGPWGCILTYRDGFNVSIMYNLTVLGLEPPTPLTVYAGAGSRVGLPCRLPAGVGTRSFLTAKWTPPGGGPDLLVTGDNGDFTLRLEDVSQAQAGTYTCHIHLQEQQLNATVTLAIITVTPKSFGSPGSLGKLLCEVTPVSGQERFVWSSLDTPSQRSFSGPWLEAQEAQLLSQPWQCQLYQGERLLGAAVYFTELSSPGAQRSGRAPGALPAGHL
In words: ELISA on coated recombinant FGL-1; blocking of the binding of biotin-labeled LAG3-ECD to FGL-1.

The target in experiment [2] is rhesus PD-L1-Fc protein (rhesus) (UniProt F6PJN1). The experiment is described as follows: ELISA (FIG. 8).
For experiment [3] the target is unchanged. In words: ELISA on coated rhesus PD-L1-Fc.

B1: 147H 3807 (antibody, V domains shown)
VH: EVQLVQSGAEVKKPGASVKVSCKASGYTFTNYWLGWIKQAPGQGLEWIGDIYPGGDYIVYNEKFKGKATLTADTSISTAYMELSRLRSDDTAVYYCARPNLPKDHWGQGTTVTVSS
VL: DIVMTQSPLSLPVTPGEPASISCRSSKSLLHSQGITYLYWYLQKPGQSPQLLIYQVSNLASGVPDRFSGSGSGTDFTLKISRVEAEDVGVYYCAQYLELPWTFGGGTKVEIK
For the molecule B1, in experiment [1], the binding entry was “binds”.

B2: Hu1210-41 (antibody, V domains shown)
VH: EVQLVESGGGLVQPGGSLRLSCAASGFTFSSYDMSWVRQAPGKSLEWVATISDAGGYIYYSDSVKGRFTISRDNAKNSLYLQMNSLRDEDTAVYICAREFGKRYALDYWGQGTTVTVSS
VL: DIQMTQSPSSLSASVGDRVTITCKASQDVTPAVAWYQQKPGKAPKLLIYSTSSRYTGVPSRFSGSGSGTDFTFTISSLQPEDIATYYCQQHYTTPLTFGQGTKLEIK
B2: the binding result in experiment [2] and in experiment [3] was “binds” in each case.
